Construct, isoform or probe ends are uncertain for at least one entry.
Molecular target: APE1 (ΔAPE1 C138A) (Homo sapiens) (UniProt P27695)
Experiment: X-ray crystallography (2.3 Å)
Settings: 3'-phosphoglycolate on strand 2; 5'-phosphate on strand 3; Crystallization: 7-14% PEG 20K, 100 mM sodium citrate pH 5.0, 15% glycerol, 5 mM CaCl2, 20 °C; 0.56 mM DNA, 10-12 mg/ml APE1; data at 100 K; recombinant protein; residues 44-318

The chains behind the UniProt entries cited, without tags or fusion partners. Residues count along the entry.
UniProt P27695, 44-318 C138A: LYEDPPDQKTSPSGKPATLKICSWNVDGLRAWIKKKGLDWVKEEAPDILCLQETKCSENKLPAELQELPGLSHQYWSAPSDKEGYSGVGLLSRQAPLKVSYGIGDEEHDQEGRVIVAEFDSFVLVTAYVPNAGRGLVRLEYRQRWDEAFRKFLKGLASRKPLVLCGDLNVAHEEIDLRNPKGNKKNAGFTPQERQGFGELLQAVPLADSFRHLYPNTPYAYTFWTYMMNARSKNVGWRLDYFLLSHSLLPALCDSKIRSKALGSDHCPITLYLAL

“GGATCCGTCGATCGCATCAGC / GCTGATGCG / TCGACGGATCC [21-mer nicked duplex, 3'-phosphoglycolate]”: binds.

— paper PMC5785985
